This note sets out measurements from PMC7819943, “Rice protein-binding microarrays: a tool to detect cis-acting elements near promoter regions in rice”.

Protein sequences, listed by entry. Tags and fused reporters are not part of them.
UniProt Q0JBA9, entry or part of it: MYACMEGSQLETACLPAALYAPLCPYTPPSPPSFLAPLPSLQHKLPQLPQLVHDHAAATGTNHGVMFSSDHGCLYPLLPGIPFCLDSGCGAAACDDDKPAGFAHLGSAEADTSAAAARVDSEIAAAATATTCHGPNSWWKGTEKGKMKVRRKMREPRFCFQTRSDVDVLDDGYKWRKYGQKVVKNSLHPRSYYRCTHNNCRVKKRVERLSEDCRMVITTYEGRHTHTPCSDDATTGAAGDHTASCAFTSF

This is one part of the list.

The assay concerns the target OsWRKY34 (Oryza sativa, UniProt Q0JBA9 1-250). Kind of assay: protein-binding microarray (RPBM); PBS, 2% BSA, 51.3 ng/ul salmon testes DNA, 50 uM zinc acetate, 200 nM TF, 25 C, 1 h; high values mean tight binding. Particulars: protein: recombinant; tags: N-terminal polyhistidine and DsRed monomer fusion (pET32a); label: CyDye5-dUTP incorporated in the synthesized complementary strand; 3' TTTTT single-stranded linker to array surface; dsDNA, one strand shown. The procedure, abridged: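 Ni–NTA purification followed expression in E. coli BL21-CodonPlus of transcription factors fused N-terminally to a polyhistidine tag and DsRed. At 200 nM in PBS with 2% BSA, salmon testes DNA and 50 µM zinc acetate, the protein was incubated for 1 h at 25 °C with a custom Agilent array that had been primer-extended with Cy5-dUTP and blocked with 2% BSA. After washing, the array was read on an Axon 4000B scanner. The binding signal is per-feature fluorescence intensity in arbitrary units.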
In the case of “TTTGCTGCTGGTCGATCCATACATACACACTCCAATATACCGGAGTCACCTAGTGCAG”, the binding signal was 8800 fluorescence intensity (a.u.).
The result for “ATTTATCCTTTTGTTATTATTCCTTTTGGGATCGATCGATCGGAGTCACCTAGTGCAG” reads 9900 fluorescence intensity (a.u.); that for “GGAAGATATAATTTCCTTTTATTCTGTCATTTCTTTTCTTCGGAGTCACCTAGTGCAG”, 8140 fluorescence intensity (a.u.).
Regarding “CCTGCTTACTGTACATCTCTGTCATCATCCTGGCTGCAACCGGAGTCACCTAGTGCAG”, the binding signal was 9690 fluorescence intensity (a.u.).
With “CTTTCATTTTTTCCATCACATTGTTTCAATTTCAACCAAACGGAGTCACCTAGTGCAG”, the binding signal was 9160 fluorescence intensity (a.u.).
As for “GAAAAATCTTTTGGCCGTACTTTTTTCATCTGGGTCCCTTCGGAGTCACCTAGTGCAG”, the binding signal was 8490 fluorescence intensity (a.u.).
With “AGTTGTGCATCTAGCCATTTTACTTTTCTTTTTTAAAAGACGGAGTCACCTAGTGCAG”, the binding signal was 9080 fluorescence intensity (a.u.).
Take “AACATTCAAACTGCCGCATATTCCTAACATTCCACATCCACGGAGTCACCTAGTGCAG”: the binding signal was 9420 fluorescence intensity (a.u.).
Regarding “CACCACTCGCCTCCGGATTGAATCCCTCCTAGCTCAGGAACGGAGTCACCTAGTGCAG”, the binding signal was 8490 fluorescence intensity (a.u.).
The result for “GCTCTCCGCCGACCTCCGCCGCGCGCCCACTCCCTTCTCCCGGAGTCACCTAGTGCAG” reads 10300 fluorescence intensity (a.u.); that for “GGTCCACTGTGAAACATTTTCCTAGGTACTTTTGATATGGCGGAGTCACCTAGTGCAG”, 8640 fluorescence intensity (a.u.).
Turning to “AGCGTCGCCGTCGTTGTTGCCTTGCCTCGCGACGCCGCTCCGGAGTCACCTAGTGCAG”, the binding signal was 8030 fluorescence intensity (a.u.).
On to “CGATGAGGAGGAGGAGGGGCAACAGTGTTAGGGTGGATTTCGGAGTCACCTAGTGCAG”, for which the binding signal is 12100 fluorescence intensity (a.u.).
The result for “ACAAGAGCTCGGTCGCGTTGGGGTTTGGGGATCGATTGATCGGAGTCACCTAGTGCAG” reads 9090 fluorescence intensity (a.u.); that for “ACGCCTTCCTCTCTTTTTCTTCTCTCACCTGTGCCGTTTCCGGAGTCACCTAGTGCAG”, 10800 fluorescence intensity (a.u.).
The result for “CCACCACCCCAACCCGCGTCTCCCTCGCCGCCGCCACCGCCGGAGTCACCTAGTGCAG” reads 8660 fluorescence intensity (a.u.).
The result for “ATCACTTCATCTTATTTGACTTGTTCTGTTCTTCACAATTCGGAGTCACCTAGTGCAG” reads 11100 fluorescence intensity (a.u.); that for “TCCAACCTTGCTGCTCATCTCAGCACTACTTACCGGCGTTCGGAGTCACCTAGTGCAG”, 8110 fluorescence intensity (a.u.); that for “TCATCGCCACCAAAGCCGTTGACCTCGCAGCTTTAATCCCCGGAGTCACCTAGTGCAG”, 12100 fluorescence intensity (a.u.).
Turning to “TTCATTTTTCTTCTCCTTTTACTGTTGTGAAAATATTGTTCGGAGTCACCTAGTGCAG”, the binding signal was 10200 fluorescence intensity (a.u.).
The result for “TTCCGATTCCCGCAGCCGTATCTCGACGAACGCCGCGGCCCGGAGTCACCTAGTGCAG” reads 8730 fluorescence intensity (a.u.); that for “ATTCCACGATTCAGGGGCGGTCCTTTTTCTCATTTTTTTCCGGAGTCACCTAGTGCAG”, 11500 fluorescence intensity (a.u.).
As for “ACCACCATGCTAGTTACTACTTATTACAATAGCTTTGTGCCGGAGTCACCTAGTGCAG”, the binding signal was 8410 fluorescence intensity (a.u.).
As to “GTTTTTTTTTTTCCTTTCACTTCCTTCCTGGGCTTTATTTCGGAGTCACCTAGTGCAG”, the binding signal was 17300 fluorescence intensity (a.u.).
Take “GAAGCTCTCTTCTCTCTCTCTACTTGCCATGTCCGGCCATCGGAGTCACCTAGTGCAG”: the binding signal is 8900 fluorescence intensity (a.u.).
On to “TCTCTTACTGATTTTCCTCCAGCACAGACGAGCACCACGCCGGAGTCACCTAGTGCAG”, for which the binding signal was 8360 fluorescence intensity (a.u.).
On to “CTTCTTATCTCCCATATCTTAGGGTGTGTTTCGTTTTATGCGGAGTCACCTAGTGCAG”, for which the binding signal is 8050 fluorescence intensity (a.u.).
“TTTTCTTCTCTTTCCTTTTCTTTTTTCCCTTCTTTTTTTCCGGAGTCACCTAGTGCAG”: the binding signal is 8650 fluorescence intensity (a.u.).
“GCCCGCCGCTCCGTGCCCTAGCGCCGCCGCCGCCGCCGCCCGGAGTCACCTAGTGCAG”: the binding signal is 8110 fluorescence intensity (a.u.).
The result for “GCTATTGTTTTTTATTTATTAAAATATTGAATTTATCTCTCGGAGTCACCTAGTGCAG” reads 10100 fluorescence intensity (a.u.).
For the sequence “AGGATCTCAATTGCAAATGGACACGGGTGGGTAACAATTACGGAGTCACCTAGTGCAG”, the binding signal was 11200 fluorescence intensity (a.u.).
For the sequence “CATCTTCCTTCCTACTCACGCCGCCGTCCGATCCATCAACCGGAGTCACCTAGTGCAG”, the binding signal is 10400 fluorescence intensity (a.u.).
Regarding “AAAGCATCATTATTTTTTTTATTCCTTTCCATGCTTATACCGGAGTCACCTAGTGCAG”, the binding signal was 11100 fluorescence intensity (a.u.).
“CGTCTTTTCTATCCAGGTTCATTGTAATGGGTCATATTCTCGGAGTCACCTAGTGCAG”: the binding signal was 16000 fluorescence intensity (a.u.).
On to “TTCTGGGCATTAGATTTGTGATGTTTCTTGTGCAGATTTTCGGAGTCACCTAGTGCAG”, for which the binding signal is 9050 fluorescence intensity (a.u.).
The result for “TACCGTTCCTACTATAATTAAGCACGGCCGTTAATTGTCCCGGAGTCACCTAGTGCAG” reads 8180 fluorescence intensity (a.u.); that for “CCGTTTCAAAATGTTTGACACCGTTGACTTTTTAGTACGTCGGAGTCACCTAGTGCAG”, 21100 fluorescence intensity (a.u.); that for “AATCATGTGTTATTGGCTTATTCTCCCATTGTACGTATCTCGGAGTCACCTAGTGCAG”, 9360 fluorescence intensity (a.u.).
Turning to “TCGTATCTCCTGCTTTGATCTTAGTTCTTGAGTATTCCATCGGAGTCACCTAGTGCAG”, the binding signal was 8470 fluorescence intensity (a.u.).
Turning to “GGTTTCTGTTATCGGTTTTCCAGTTTCAGTCCTATTGTAACGGAGTCACCTAGTGCAG”, the binding signal is 10900 fluorescence intensity (a.u.).
In the case of “TATCATCCATCCATCCAGCCAGCCAAACAGTAGCAACATGCGGAGTCACCTAGTGCAG”, the binding signal was 8540 fluorescence intensity (a.u.).
The result for “CTTCTTCTCGTTCTCCTCCACCATTTTCAGCAGCAGATCCCGGAGTCACCTAGTGCAG” reads 8150 fluorescence intensity (a.u.); that for “GACTGCTACTGTCGCCGCCTTCGTTCCTCTTCAGCACTACCGGAGTCACCTAGTGCAG”, 8110 fluorescence intensity (a.u.).
Turning to “GTCTCTCTCCCTTCTCAAGTGTGCCTCATTTGTTGACTTTCGGAGTCACCTAGTGCAG”, the binding signal is 12500 fluorescence intensity (a.u.).
On to “GCCTCGACATGCGCGTCCGATTTATCCCCTTTTTTTTTTTCGGAGTCACCTAGTGCAG”, for which the binding signal is 8470 fluorescence intensity (a.u.).
The result for “AAACCATGCGGCGCACGAGCCACTCGCACTCGCACTCGCACGGAGTCACCTAGTGCAG” reads 9360 fluorescence intensity (a.u.); that for “GAACGTGGTGCCTTTTTTCGAGCTGTCTTAATAATATAATCGGAGTCACCTAGTGCAG”, 8830 fluorescence intensity (a.u.); that for “TTTTCCTTTGGATTTTCTACGATCTGTTTCCACATCCGAACGGAGTCACCTAGTGCAG”, 8310 fluorescence intensity (a.u.).
The result for “ATCTTGTTTTTTTCATCTTCCATTTTTCAATCATTTATTTCGGAGTCACCTAGTGCAG” reads 11800 fluorescence intensity (a.u.).
The result for “ATGACGTCCAAAGCTTCACCTTTTTTTTTATATATAAACCCGGAGTCACCTAGTGCAG” reads 8260 fluorescence intensity (a.u.); that for “ACCTTTCACGCCGCCGCACTACCTCTCCACCCTCTCGCGGCGGAGTCACCTAGTGCAG”, 8380 fluorescence intensity (a.u.).
“GTTGCATTGTATAACTCTAGTACTCTACTTTGTTTTAATACGGAGTCACCTAGTGCAG”: the binding signal is 8150 fluorescence intensity (a.u.).
As for “GGGAGTGTGGAGGTGTTGTGCTGCGGCGTGGGTGTGTTGGCGGAGTCACCTAGTGCAG”, the binding signal was 8640 fluorescence intensity (a.u.).
On to “TCTGTTTGTTCTATTTGTTTGACCTTTTCGTGTAAAGGGTCGGAGTCACCTAGTGCAG”, for which the binding signal is 8400 fluorescence intensity (a.u.).
